The list shows a part of the results. Further columns of the screen follow, without active or inactive calls. The list favours compounds with an active or inconclusive main result. Words in brackets tell the shape of the fitted curve; partial curves, single points and poor fits give uncertain potencies.
Assay: qHTS Assay for Lipid Storage Modulators in Drosophila S3 Cells;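 for cell number change: cells counted by Cell Tracker Red CMTPX staining in the red channel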
Conditions: BODIPY lipid droplet fluorescence, 18-24 h
Method in brief: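 Drosophila S3 cells loaded with oleic acid (400 uM, as added) and compounds at several concentrations; lipid droplets imaged by 488-nm laser-scanning cytometry, 500–530 nm intensity and object ratio to cell channel. Percent activity normalized to 20 uM Triacsin C.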

## O=C(CSc1ncnc2sccc12)N1CCN(C(=O)c2cccs2)CC1
Measured here: cell count max response, cells fed with added oleic acid
  cell number change: -31.8%
Measured here: cell number channel AC50, cells fed with added oleic acid
  AC50: 4.61 µM [falling, full curve, poor fit]
Measured here: lipid fluorescence (Fed channel) AC50, cells fed with added oleic acid
  AC50: 5.17 µM [falling, full curve, poor fit]

From PubChem BioAssay AID2685 (National Center for Advancing Translational Sciences (NCATS), 2010)
